Assay results: patent US20170260178A1 (SPERO GYRASE, INC., priority 2012, published 2017)
Some results were stated once for a whole list of compounds, not compound by compound. For at least one compound, name, drawing or mass did not settle the structure.

Experiments:
S. pyogenes (ATCC 51339) = test: Bacterial assay: MIC against S. pyogenes; assay type: cell-based, Streptococcus pyogenes
[1] = system: H. influenzae (ATCC 49247); test: Bacterial assay: MIC against H. influenzae; assay type: cell-based, Haemophilus influenzae

CCNC(=O)Nc1nc2cc(-c3cnc(N4CCC(C)(C(=O)O)CC4)nc3)cc(-c3ccc(C(C)(C)O)cn3)c2s1 [Compound 99, 1-[5-[2-(ethylcarbamoylamino)-7-[5-(1-hydroxy-1-methy-ethyl)-2-pyridyl]-1,3-benzothiazol-5-yl]pyrimidin-2-yl]-4-methyl-piperidine-4-carboxylic acid]
minimal inhibitory concentration (MIC) (S. pyogenes (ATCC 51339)): ≦1 μg/mL
minimal inhibitory concentration (MIC) [1]: ≦2 μg/mL
